Consider three compounds from patent US4843158A, “[2,2,1]Cryptand compounds that selectively bind sodium” (priority 1985, dated 1989).

Holding throughout (type): binding
Series [1] in a line: Cation induced 19F NMR chemical shift, magnesium. The settings on record: 37° C.
Series [2] is described as follows: Cation induced 19F NMR chemical shift, calcium. The settings on record: 37° C.
Series [3] is described as follows: Cation induced 19F NMR chemical shift, potassium. The settings on record: 37° C. As for the experimental part:
(§1) NMR titrations: Nmr spectra were recorded on Bruker WH 200 or Am 400 spectrometers at 188 or 376 MHz respectively at chelator concentrations between 5 and 10 mM in the same buffer as for fluorescence titrations but containing 20% D2 O at 37° C. The spectra were obtained with an acquisition time of 1.0 sec. and a 90° pulse and were processed with resolution enhancement (-0.5 of the observed line width) and appropriate gaussian sensitivity enhancement. The proportion of M^n+ -chelator complex was calculated from the integrals of the resolved free and bound chelator ^19 F resonances, or from the chemical shift of complexes in fast exchange. The apparent affinities were determined graphically as for the fluorescence data, but using a two step iteration from the affinity derived from the fluorescence data when the dissociation constant was close to the chelator concentration in the nmr titrations.

Series [4] can be described thus: Cation induced 19F NMR chemical shift, sodium. The settings on record: 37° C. As for the experimental part:
as §1

The nature of series [5]: Cation induced 19F NMR chemical shift, proton. The settings on record: 37° C., at pH 7.0.

For `O=C(O)CN(CC(=O)O)c1ccc2c(c1)OCCN1CCOCCN(CCO2)c2ccc(F)cc2OCCOc2cc(F)ccc21` [Compound 7a], in series [1], the “Cation Induced Chemical Shift, Mg2+” value worked out at 0 ppm downfield. In addition, in series [2], the “Cation Induced Chemical Shift, Ca2+” value worked out at 0 ppm downfield. The “Cation Induced Chemical Shift, K+” value in series [3] was 1.09 ppm downfield. Moreover, the “Cation Induced Chemical Shift, Na+” value in series [4] is 3.09 ppm downfield.
In the case of `O=C(O)CN(CC(=O)O)c1cccc(N2CCN3CCOc4ccc(N(CC(=O)O)CC(=O)O)cc4OCCN(CC2)c2ccc(F)cc2OCCOc2cc(F)ccc23)c1` [Compound 7d], the “Cation Induced Chemical Shift, Mg2+” value in series [1] was 0 ppm downfield. Besides, in series [5], the “Cation Induced Chemical Shift, H+” value is recorded as -0.5 ppm per unit of pH. Besides, the “Cation Induced Chemical Shift, Ca2+” value in series [2] amounted to 0 ppm downfield. Further, the “Cation Induced Chemical Shift, K+” value in series [3] is listed as 0 ppm downfield. Moreover, the “Cation Induced Chemical Shift, Na+” value in series [4] is listed as 1.96 ppm downfield.
On to `CC(=O)c1cc2c(cc1N(CC(=O)O)CC(=O)O)OCCN1CCN(c3cccc(N(CC(=O)O)CC(=O)O)c3)CCN(CCO2)c2ccc(F)cc2OCCOc2cc(F)ccc21` [Compound 8d], for which, in series [1], the “Cation Induced Chemical Shift, Mg2+” value worked out at 0 ppm downfield. In addition, in series [5], the “Cation Induced Chemical Shift, H+” value is on record as -0.25 ppm per unit of pH. Also, in series [2], the “Cation Induced Chemical Shift, Ca2+” value was found to be 0 ppm downfield. Moreover, the “Cation Induced Chemical Shift, K+” value in series [3] came to 0 ppm downfield. Moreover, the “Cation Induced Chemical Shift, Na+” value in series [4] is 2.00 ppm downfield.
